# Most entries show no effect beyond the scatter of the controls.
# Assays:
# Test in all cases: normalised response (% of control), CellTox Green; higher = less cell death (100 = DMSO, 0 = benzethonium chloride kill control)
# Details in all cases: incubation time: 72 h
# HCC1599 = test system: HCC1599
# Protocol: (§1)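 DSRT, 72 h incubation, CellTox Green / CellTiter-Glo readout. Signal is normalised to DMSO and benzethonium chloride controls. Value is the normalised response at the lowest tested concentration.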
# CAL-120 = test system: CAL-120
# Protocol: as §1
# MDA-MB-453 = test system: MDA-MB-453
# Protocol: as §1
# CAL-85-1 = test system: CAL-85-1
# Protocol: as §1
# HCC1937 = test system: HCC1937
# Protocol: as §1
# CAL-51 = test system: CAL-51
# Protocol: as §1
# DU-4475 = test system: DU-4475
# Protocol: as §1
# CAL-148 = test system: CAL-148
# Protocol: as §1
# BT-474 = test system: BT-474
# Protocol: as §1
# BT-549 = test system: BT-549
# Protocol: as §1
# MDA-MB-231 = test system: MDA-MB-231
# Protocol: as §1
# MDA-MB-468 = test system: MDA-MB-468
# Protocol: as §1
# MDA-MB-436 = test system: MDA-MB-436
# Protocol: as §1
# Hs578T = test system: Hs578T
# Protocol: as §1
# MFM-223 = test system: MFM-223
# Protocol: as §1
# HCC1143 = test system: HCC1143
# Protocol: as §1
# MCF-10A = test system: MCF-10A
# Protocol: as §1
# HDQ-P1 = test system: HDQ-P1
# Protocol: as §1
Structure (SMILES),normalised response (HCC1599),normalised response (CAL-120),normalised response (MDA-MB-453),normalised response (CAL-85-1),normalised response (HCC1937),normalised response (CAL-51),normalised response (DU-4475),normalised response (CAL-148),normalised response (BT-474),normalised response (BT-549),normalised response (MDA-MB-231),normalised response (MDA-MB-468),normalised response (MDA-MB-436),normalised response (Hs578T),normalised response (MFM-223),normalised response (HCC1143),normalised response (MCF-10A),normalised response (HDQ-P1)
CC[C@H](CC#N)OC(=O)N[C@@H](C)c1cccc(NC(=O)Nc2ccc(-c3cnco3)c(OC)c2)c1 [AVN944] (1 nM),101%,98.8%,99.3%,101%,105%,79.7%,98.4%,52.8%,97.3%,98.9%,96.4%,95.1%,82.5%,97.9%,101%,94.6%,–,–
CN(C)c1nc(N(C)C)nc(N(C)C)n1 [Altretamine] (1 nM),110%,103%,104%,107%,99.8%,119%,105%,104%,101%,87.6%,109%,58.2%,82.2%,–,98%,129%,92.9%,99%
CCNC(=O)CCC/C=C\C[C@@H]1[C@@H](/C=C/[C@@H](O)CCc2ccccc2)[C@H](O)C[C@@H]1O [Bimatoprost] (0.55 nM),98%,103%,100%,104%,–,109%,97.3%,99.8%,97.5%,83.7%,98.8%,73.4%,85.9%,–,67.5%,92.4%,97.3%,98.6%
Cc1nc(Nc2ncc(C(=O)Nc3c(C)cccc3Cl)s2)cc(N2CCN(CCO)CC2)n1 [Dasatinib] (0.1 nM),111%,105%,102%,106%,55%,84.4%,107%,102%,98.2%,101%,103%,110%,102%,93.9%,104%,120%,113%,–
CCOC(=O)CCNc1cc(N2CCc3ccccc3CC2)nc(-c2ccccn2)n1 [GSK-J4] (10 nM),102%,96.8%,99.3%,106%,–,91.3%,104%,–,98.4%,89.2%,116%,72.4%,89.3%,106%,105%,107%,104%,99.3%
Cc1cccc(-c2nn3c(c2-c2ccnc4ccc(C(N)=O)cc24)CCC3)n1 [Galunisertib] (0.1 nM),107%,98.3%,114%,95.6%,–,109%,107%,79%,101%,94.1%,106%,97.6%,102%,71.2%,104%,114%,106%,89.5%
CO[C@@H]1[C@H](N(C)C(=O)c2ccccc2)C[C@H]2O[C@]1(C)n1c3ccccc3c3c4c(c5c6ccccc6n2c5c31)C(=O)NC4 [Midostaurin] (1 nM),82.3%,96.8%,94.7%,109%,95.5%,105%,95.4%,105%,97.3%,90.5%,101%,58.1%,–,–,101%,111%,101%,76.6%
C[C@]12C=CC(=O)C=C1CC[C@@H]1[C@@H]2[C@@H](O)C[C@@]2(C)[C@H]1CC[C@]2(O)C(=O)CO [Prednisolone] (1 nM),92.9%,98.2%,101%,98.5%,–,100%,101%,91.9%,101%,79.5%,112%,109%,88.6%,92.2%,99.1%,121%,104%,99.9%
CNC(=O)c1ccc(N2C(=S)N(c3ccc(C#N)c(C(F)(F)F)c3)C(=O)C23CCC3)cc1F [RD162] (1 nM),109%,103%,106%,98.7%,–,116%,107%,102%,100%,90.8%,111%,91.7%,100%,114%,106%,112%,107%,108%
O=C(c1ccc(C(=O)N2CCC(N3CCCC3)CC2)c(Nc2ccccc2)c1)N1CCC(N2CCCC2)CC1 [UNC1215] (3 nM),105%,101%,101%,84.4%,103%,112%,102%,94.4%,99.1%,84.7%,102%,71.8%,91.9%,105%,98.6%,92.4%,–,–
O=C(CCCCCCC(=O)Nc1ccccc1)NO [Vorinostat] (1 nM),96.7%,103%,100%,97.9%,59%,72.1%,97.1%,94.7%,91.7%,–,103%,88.2%,89.2%,98.8%,101%,109%,84%,–

# Single records, from the list above. Values in the order: normalised response (HCC1599)	normalised response (CAL-120)	normalised response (MDA-MB-453)	normalised response (CAL-85-1)	normalised response (HCC1937)	normalised response (CAL-51)	normalised response (DU-4475)	normalised response (CAL-148)	normalised response (BT-474)	normalised response (BT-549)	normalised response (MDA-MB-231)	normalised response (MDA-MB-468)	normalised response (MDA-MB-436)	normalised response (Hs578T)	normalised response (MFM-223)	normalised response (HCC1143)	normalised response (MCF-10A)	normalised response (HDQ-P1)
# CCOC(=O)CCNc1cc(N2CCc3ccccc3CC2)nc(-c2ccccn2)n1 [GSK-J4] (10 nM) reads 102%	96.8%	99.3%	106%	–	91.3%	104%	–	98.4%	89.2%	116%	72.4%	89.3%	106%	105%	107%	104%	99.3%
# CO[C@@H]1[C@H](N(C)C(=O)c2ccccc2)C[C@H]2O[C@]1(C)n1c3ccccc3c3c4c(c5c6ccccc6n2c5c31)C(=O)NC4 [Midostaurin] (1 nM) reads 82.3%	96.8%	94.7%	109%	95.5%	105%	95.4%	105%	97.3%	90.5%	101%	58.1%	–	–	101%	111%	101%	76.6%

# Reference: the supplement of paper PMC4862054
